Source: PubChem BioAssay AID901 (National Center for Advancing Translational Sciences (NCATS), 2007)
This is one part of the list. Shown are side measurements of this screen, not its main read-out; they come without a call. The list favours compounds with an active or inconclusive main result. Words in brackets tell the shape of the fitted curve; partial curves, single points and poor fits give uncertain potencies.

Test: qHTS Assay for Identifying the Cell-Membrane Permeable IMPase Inhibitors
Conditions: CHO-M1 cells, IP1 accumulation, HTRF TR-FRET ratio; measured here: donor channel 620 nm AC50

SMILES	AC50
O=C(Nc1nnc(SCc2ccccc2)s1)c1ccco1	0.01 µM [rising, full curve, poor fit]
CC12CC(c3ccccc3O1)C(C(=O)N1CCOCC1)C(=O)N2 (stereo not drawn)	6.31 µM [rising, single point]
CC(=O)Nc1ccc(NC(=O)c2ccccc2N(C)S(C)(=O)=O)cc1	0.0316 µM [falling, full curve, poor fit]
N#Cc1cc2[nH]c(=O)c(=O)[nH]c2cc1[N+](=O)[O-]	12.6 µM [falling, partial curve, poor fit]
COc1ccccc1N(CC(=O)Nc1ccc2c(c1)OCCO2)S(C)(=O)=O	0.398 µM [falling, partial curve]
CCC(=O)Nc1c2c(nn1-c1ccc(C)cc1C)CSC2	5.01 µM [rising, full curve]
O=C(CN(C(=O)CNS(=O)(=O)c1ccccc1)c1ccc2c(c1)OCCO2)NCc1ccco1	1.58 µM [rising, partial curve]
CC1(C)NC(=O)N(CC(O)COc2ccccc2C(=O)N2CCCCC2)C1=O (stereo not drawn)	0.631 µM [rising, full curve, poor fit]
Cc1ccc(CNC(=O)CCc2nc3ccccc3c(=O)[nH]2)cc1	0.0501 µM [rising, partial curve, poor fit]
CCc1ccc2oc(-c3cc(NC(=O)c4cc(OC)c(OC)c(OC)c4)ccc3O)nc2c1	12.6 µM [rising, partial curve]
CCCCOC(=O)CSCC(=O)Nc1cc(C)on1	2.51 µM [rising, partial curve, poor fit]
CCOC(=O)c1cc(C(=O)c2cccs2)n2ccc(C(C)=O)cc12	31.6 µM [rising, single point]
O=C1NC(c2ccccc2)=C(c2ccc3ccccc3n2)C(c2ccncc2)N1 (stereo not drawn)	3.16 µM [rising, full curve, poor fit]
O=[N+]([O-])c1ccc(NNC(=S)Nc2ccc(F)cc2)cc1	12.6 µM [falling, single point]
CCCOc1ccc(N2C(=O)CC(N3CCC(c4nncn4CC)CC3)C2=O)cc1 (stereo not drawn)	5.01 µM [falling, single point]
CC1(C)CC(=O)C2=C(C1)N(Cc1ccco1)C(=O)C2(O)C(F)(F)F (stereo not drawn)	25.1 µM [falling, single point]
CN(C1CCCCC1)S(=O)(=O)c1ccc(NC(=O)c2ccco2)cc1	5.62 µM [falling, full curve, poor fit]
CC(CCc1ccccc1)NC(=O)c1ccco1 (stereo not drawn)	3.98 µM [falling, partial curve]
N#Cc1ccc(-c2nc3ccccc3nc2-c2ccccc2)cc1C#N	25.1 µM [rising, single point]
O=C(Nc1cccc(C(=O)O)c1)/C(=C\c1ccccc1)NC(=O)c1ccccc1Cl	5.01 µM [rising, partial curve]
CS(=O)(=O)N(CC(=O)Nc1c(F)cccc1F)c1cccc([N+](=O)[O-])c1	6.31 µM [rising, full curve]
C=CCn1c(SCc2c(C)noc2C)nc2sc3c(c2c1=O)CCCC3	31.6 µM [falling, single point]
CCOc1cc2nc(-c3ccc(OC)c(OC)c3)nc(N3CCOCC3)c2cc1OC	2 µM [falling, single point]

Given in CSV form: part of the list above
SMILES,AC50
COc1ccccc1N(CC(=O)Nc1ccc2c(c1)OCCO2)S(C)(=O)=O,"0.398 µM [falling, partial curve]"
CC1(C)CC(=O)C2=C(C1)N(Cc1ccco1)C(=O)C2(O)C(F)(F)F (stereo not drawn),"25.1 µM [falling, single point]"
CN(C1CCCCC1)S(=O)(=O)c1ccc(NC(=O)c2ccco2)cc1,"5.62 µM [falling, full curve, poor fit]"

Next entries follow:

SMILES	AC50
O=C(c1ccc(Cl)c(Cl)c1)N1CCOCC1	0.158 µM [rising, single point]
O=C(Nc1nccs1)c1ccc(S(=O)(=O)NCc2cccs2)cc1	3.98 µM [falling, full curve]
COc1ccc2c(c1)[nH]c1c(=O)n(CCCn3ccnc3)cnc12	0.0794 µM [falling, full curve]
CC(=O)C1C(c2ccccc2)c2c(n[nH]c2C)CC1(C)O (stereo not drawn)	0.794 µM [falling, full curve]
Cc1ccc(Oc2nc(-c3ccccc3)ncc2S(=O)(=O)c2ccc(C)cc2)cc1	0.0112 µM [falling, full curve]
Cc1ccc(/C=C/c2nnc(-c3ccc(C)cc3)o2)cc1	0.0251 µM [rising, full curve, poor fit]
c1ccc(CNCC2COc3ccccc3O2)cc1 (stereo not drawn)	15.8 µM [falling, single point]
NC(=O)NC(Cc1ccccc1)C(=O)Nc1ccc(S(N)(=O)=O)cc1 (stereo not drawn)	3.16 µM [falling, partial curve]
CCOc1ccc(Nc2nc3ccccc3c3nnc(CC)n23)cc1	6.31 µM [falling, single point]
CCN(CC)C(=O)c1sc(NC(=O)C2c3ccccc3Oc3ccccc32)c(C(=O)OC(C)C)c1C	5.62 µM [falling, single point]
Cn1c(-c2ccc(N)cc2)nc2ccccc21	0.126 µM [falling, full curve, poor fit]
COc1ccccc1NC(=O)CSc1nnnn1-c1ccc(C)cc1	0.794 µM [falling, full curve]
Cc1nn2cc(-c3ccccc3)nc2[nH]c1=O	0.398 µM [falling, partial curve, poor fit]
O=C(Nc1ccccc1)c1sc(N2CCOCC2)nc1-c1ccccc1	25.1 µM [rising, partial curve]
CNC(=O)c1[nH]cnc1C(=O)Nc1ccccc1C	0.1 µM [rising, partial curve]
COc1ccc(/C=C/c2ccncc2)cc1OC	6.31 µM [falling, single point]
Cc1cccc(Nc2c(-c3ccsc3)nc3nc(C)cc(C)n23)c1	12.6 µM [rising, partial curve]
COCCNC(=O)CSc1nc(-c2ccccc2)cs1	0.1 µM [rising, full curve]
CCc1ccc(NC(=O)CCNS(=O)(=O)c2cccc3nsnc23)cc1	0.316 µM [falling, full curve, poor fit]
O=C(NCCc1ccccc1)c1cc(-c2ccco2)on1	12.6 µM [rising, single point]
OCCCCCNc1ncnc2ccccc12	25.1 µM [rising, single point]
Cc1ccc(C(=O)N/N=C\c2c(C)nn(-c3ccccc3)c2Cl)cn1	14.1 µM [rising, single point]
O=C(Nc1c(C(=O)N2CCCC2)cnn1-c1ccccc1)c1cccc(F)c1	31.6 µM [falling, single point]

Arranged by length of the SMILES (low to high): some entries from above.
SMILES	AC50
OCCCCCNc1ncnc2ccccc12	25.1 µM [rising, single point]
COCCNC(=O)CSc1nc(-c2ccccc2)cs1	0.1 µM [rising, full curve]
CCc1ccc(NC(=O)CCNS(=O)(=O)c2cccc3nsnc23)cc1	0.316 µM [falling, full curve, poor fit]

Later entries:

SMILES	AC50
Cc1ccc(-n2nc3c(=S)[nH]nc(C)c3c2C)cc1	15.8 µM [rising, partial curve]
Cc1ccc(C(=O)COC(=O)c2cc(-c3ccc(Cl)cc3)nc3ccccc23)cc1	7.08 µM [rising, partial curve]
Cc1c(N2C(=O)CS/C2=N\N=C\c2ccccc2O)c(=O)n(-c2ccccc2)n1C	0.794 µM [falling, full curve]
C=CCn1c(SCc2ccccc2)nc2scc(-c3ccc(C)o3)c2c1=O	25.1 µM [rising, single point]
COc1ccc(NC(=O)CN2CCC3(O)CCCCC3C2c2ccccc2OC)cc1 (stereo not drawn)	2.51 µM [falling, partial curve]
N/C(Cc1ccc(Cl)cc1)=N\OC(=O)c1cccc2ccccc12	0.0158 µM [rising, full curve, poor fit]
CCn1c2ccc(/C(C)=N\O)cc2c2cc(/C(C)=N\O)ccc21	3.98 µM [rising, partial curve]
O=C(Nc1ccc(O)cc1)c1cccc(S(=O)(=O)N2CCOCC2)c1	0.112 µM [falling, full curve, poor fit]
CC(=O)Nc1ccc(S(=O)(=O)NC(CC(=O)N(C)Cc2ccccc2)C(C)C)cc1 (stereo not drawn)	3.98 µM [rising, full curve]
O=C(O)c1ccc(Cl)cc1NC(=O)C1CCCO1 (stereo not drawn)	0.158 µM [falling, full curve, poor fit]
OCCNc1nc(N2CCCC2)nc(N2CCCC2)n1	0.891 µM [falling, full curve, poor fit]
COc1ccc(-c2nn3c(-c4ccc(C)cc4)nnc3c3ccccc23)cc1	0.316 µM [falling, partial curve]
O=C(Nc1ccc(OC(F)(F)F)cc1)c1cnc2n(c1=O)CCS2	31.6 µM [rising, single point]
O=C(C1CCN(c2ccc(N3CCOCC3)nn2)CC1)N1CCc2ccccc2C1	0.0631 µM [rising, partial curve, poor fit]
c1ccc2[nH]c(NCCN3CCOCC3)nc2c1	1 µM [falling, full curve, poor fit]
c1ccc(CSc2nnc(-c3cccnc3)o2)cc1	1 µM [falling, single point]
COc1ccc2nc3sc(C(=O)Nc4cc(Cl)c(OC)cc4OC)cc3cc2c1	35.5 µM [rising, single point]
COC(=O)C(C)N(c1ccc(C)cc1)S(=O)(=O)c1c(C)[nH]c(=O)[nH]c1=O (stereo not drawn)	0.0631 µM [falling, full curve, poor fit]
CCOC(=O)c1c(NC(=O)CNCCOC)sc2c1CCCC2	0.00501 µM [falling, full curve, poor fit]
Nc1cc([N+](=O)[O-])ccc1O	22.4 µM [falling, partial curve]
CCOc1ccc(NC(=O)c2ccccc2OC)cc1	0.501 µM [rising, partial curve, poor fit]
CC(C)CCn1c(NCCN(C)C)nc2c1c(=O)[nH]c(=O)n2C	0.02 µM [rising, full curve, poor fit]
